{"sequences": {"note": "Chains of the proteins cited; added tags and fusions are not shown. Lines headed by an entry give the natural chain unless they say otherwise; changes in a name come on top.", "UniProt Q86SQ7": "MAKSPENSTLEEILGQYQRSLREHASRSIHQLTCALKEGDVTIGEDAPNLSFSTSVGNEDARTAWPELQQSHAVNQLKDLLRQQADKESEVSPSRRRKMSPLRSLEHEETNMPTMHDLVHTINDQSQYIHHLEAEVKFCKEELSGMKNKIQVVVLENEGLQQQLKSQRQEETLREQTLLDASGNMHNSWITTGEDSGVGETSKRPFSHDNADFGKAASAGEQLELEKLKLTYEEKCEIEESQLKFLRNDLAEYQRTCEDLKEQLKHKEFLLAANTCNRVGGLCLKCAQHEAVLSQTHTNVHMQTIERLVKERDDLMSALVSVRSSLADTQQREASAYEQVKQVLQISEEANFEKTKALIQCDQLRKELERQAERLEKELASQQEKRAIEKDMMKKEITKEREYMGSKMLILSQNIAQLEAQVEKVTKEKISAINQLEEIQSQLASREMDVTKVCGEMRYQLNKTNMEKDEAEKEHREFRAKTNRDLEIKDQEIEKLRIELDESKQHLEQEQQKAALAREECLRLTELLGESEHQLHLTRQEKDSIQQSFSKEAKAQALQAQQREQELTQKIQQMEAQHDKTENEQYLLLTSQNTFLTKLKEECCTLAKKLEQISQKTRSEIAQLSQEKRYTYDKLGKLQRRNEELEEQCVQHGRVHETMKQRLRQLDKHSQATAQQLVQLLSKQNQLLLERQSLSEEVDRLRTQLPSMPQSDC", "UniProt P57060": "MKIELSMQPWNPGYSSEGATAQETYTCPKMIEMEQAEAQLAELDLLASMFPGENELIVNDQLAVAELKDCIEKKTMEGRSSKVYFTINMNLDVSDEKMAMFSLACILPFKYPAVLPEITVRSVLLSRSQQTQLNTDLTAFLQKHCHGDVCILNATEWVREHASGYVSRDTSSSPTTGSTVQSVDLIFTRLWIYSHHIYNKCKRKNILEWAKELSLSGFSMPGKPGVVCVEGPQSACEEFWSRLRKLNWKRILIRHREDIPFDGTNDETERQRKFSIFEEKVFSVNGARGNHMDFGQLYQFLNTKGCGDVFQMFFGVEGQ", "UniProt P56182": "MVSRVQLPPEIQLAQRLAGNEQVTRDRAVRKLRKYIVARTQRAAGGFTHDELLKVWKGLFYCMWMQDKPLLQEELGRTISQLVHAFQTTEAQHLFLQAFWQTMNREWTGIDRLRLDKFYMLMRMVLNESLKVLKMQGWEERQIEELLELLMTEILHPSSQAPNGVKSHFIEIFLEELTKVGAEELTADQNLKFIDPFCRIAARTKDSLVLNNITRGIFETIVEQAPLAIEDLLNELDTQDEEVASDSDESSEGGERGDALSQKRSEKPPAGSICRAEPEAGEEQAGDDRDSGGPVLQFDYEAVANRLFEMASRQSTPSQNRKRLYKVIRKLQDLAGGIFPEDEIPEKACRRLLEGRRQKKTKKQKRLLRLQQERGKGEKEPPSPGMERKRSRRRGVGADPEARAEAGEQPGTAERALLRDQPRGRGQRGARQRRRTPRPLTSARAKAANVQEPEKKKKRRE", "UniProt Q92622": "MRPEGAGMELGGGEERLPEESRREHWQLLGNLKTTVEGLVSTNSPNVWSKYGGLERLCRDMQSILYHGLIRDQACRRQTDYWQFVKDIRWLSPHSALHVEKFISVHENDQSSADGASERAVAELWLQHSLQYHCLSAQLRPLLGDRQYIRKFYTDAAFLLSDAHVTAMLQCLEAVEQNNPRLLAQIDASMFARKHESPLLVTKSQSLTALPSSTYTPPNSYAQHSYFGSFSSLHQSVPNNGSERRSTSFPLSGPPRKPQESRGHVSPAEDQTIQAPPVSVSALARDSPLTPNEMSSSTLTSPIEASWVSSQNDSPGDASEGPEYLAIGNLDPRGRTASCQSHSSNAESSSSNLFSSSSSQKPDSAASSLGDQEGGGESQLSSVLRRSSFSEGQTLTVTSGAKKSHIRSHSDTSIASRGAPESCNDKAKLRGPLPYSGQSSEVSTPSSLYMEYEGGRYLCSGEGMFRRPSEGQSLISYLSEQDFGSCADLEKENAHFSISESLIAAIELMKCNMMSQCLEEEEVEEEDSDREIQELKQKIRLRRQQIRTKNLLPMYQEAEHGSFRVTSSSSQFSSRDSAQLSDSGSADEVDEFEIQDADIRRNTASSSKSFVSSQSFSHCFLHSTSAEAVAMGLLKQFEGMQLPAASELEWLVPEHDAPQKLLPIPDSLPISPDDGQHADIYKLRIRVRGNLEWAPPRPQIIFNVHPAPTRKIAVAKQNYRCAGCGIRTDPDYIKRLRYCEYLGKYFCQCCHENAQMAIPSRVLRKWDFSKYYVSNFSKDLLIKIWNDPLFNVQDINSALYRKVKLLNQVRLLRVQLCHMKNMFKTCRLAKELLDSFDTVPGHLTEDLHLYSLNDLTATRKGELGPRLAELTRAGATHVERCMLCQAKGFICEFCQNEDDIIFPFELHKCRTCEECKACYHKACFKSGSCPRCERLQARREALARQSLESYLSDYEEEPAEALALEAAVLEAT", "UniProt Q01196, whole entry, looked up": "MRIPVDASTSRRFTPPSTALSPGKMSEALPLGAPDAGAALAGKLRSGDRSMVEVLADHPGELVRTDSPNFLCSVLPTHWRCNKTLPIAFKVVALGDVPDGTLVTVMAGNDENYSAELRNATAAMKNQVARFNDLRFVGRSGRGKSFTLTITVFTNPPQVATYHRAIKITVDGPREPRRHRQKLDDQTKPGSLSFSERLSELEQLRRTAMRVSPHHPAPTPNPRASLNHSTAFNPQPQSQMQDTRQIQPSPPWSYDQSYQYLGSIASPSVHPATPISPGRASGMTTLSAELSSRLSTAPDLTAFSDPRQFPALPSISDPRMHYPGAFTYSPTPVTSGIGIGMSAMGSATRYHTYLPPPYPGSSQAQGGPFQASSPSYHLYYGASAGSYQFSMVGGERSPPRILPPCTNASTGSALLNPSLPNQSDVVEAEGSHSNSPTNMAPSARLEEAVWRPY", "UniProt Q13296": "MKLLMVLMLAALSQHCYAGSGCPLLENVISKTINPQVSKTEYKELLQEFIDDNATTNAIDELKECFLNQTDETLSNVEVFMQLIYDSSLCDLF", "UniProt Q7L3V2": "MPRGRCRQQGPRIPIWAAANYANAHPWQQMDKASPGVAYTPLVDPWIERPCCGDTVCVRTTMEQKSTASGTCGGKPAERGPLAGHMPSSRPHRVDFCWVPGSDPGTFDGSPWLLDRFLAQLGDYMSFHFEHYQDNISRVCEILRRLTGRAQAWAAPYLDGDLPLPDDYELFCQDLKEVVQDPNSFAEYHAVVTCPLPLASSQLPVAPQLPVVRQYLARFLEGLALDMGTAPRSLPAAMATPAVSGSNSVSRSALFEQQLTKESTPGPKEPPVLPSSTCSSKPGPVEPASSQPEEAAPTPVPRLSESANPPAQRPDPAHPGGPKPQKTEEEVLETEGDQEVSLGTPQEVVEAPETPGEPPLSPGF", "UniProt A6ZKI3": "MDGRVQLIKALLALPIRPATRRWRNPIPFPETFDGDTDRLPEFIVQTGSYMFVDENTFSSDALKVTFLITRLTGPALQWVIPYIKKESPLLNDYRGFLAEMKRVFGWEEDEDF", "UniProt Q9HCY8": "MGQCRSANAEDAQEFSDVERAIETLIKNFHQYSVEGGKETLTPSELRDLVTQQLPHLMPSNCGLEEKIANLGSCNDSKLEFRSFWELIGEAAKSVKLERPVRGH", "UniProt O75056, whole entry, looked up": "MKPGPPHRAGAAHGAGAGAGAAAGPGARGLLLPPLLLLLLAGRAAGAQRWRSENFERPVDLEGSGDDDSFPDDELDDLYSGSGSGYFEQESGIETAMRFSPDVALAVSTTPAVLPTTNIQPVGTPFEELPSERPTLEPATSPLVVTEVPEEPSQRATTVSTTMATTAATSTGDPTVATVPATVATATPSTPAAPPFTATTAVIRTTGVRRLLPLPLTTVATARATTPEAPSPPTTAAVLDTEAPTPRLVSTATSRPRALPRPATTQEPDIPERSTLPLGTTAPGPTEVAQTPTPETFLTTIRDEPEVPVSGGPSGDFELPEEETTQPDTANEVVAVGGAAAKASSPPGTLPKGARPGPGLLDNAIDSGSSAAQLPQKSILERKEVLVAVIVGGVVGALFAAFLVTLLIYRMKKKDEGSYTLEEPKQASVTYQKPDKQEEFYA", "UniProt Q9NQC3": "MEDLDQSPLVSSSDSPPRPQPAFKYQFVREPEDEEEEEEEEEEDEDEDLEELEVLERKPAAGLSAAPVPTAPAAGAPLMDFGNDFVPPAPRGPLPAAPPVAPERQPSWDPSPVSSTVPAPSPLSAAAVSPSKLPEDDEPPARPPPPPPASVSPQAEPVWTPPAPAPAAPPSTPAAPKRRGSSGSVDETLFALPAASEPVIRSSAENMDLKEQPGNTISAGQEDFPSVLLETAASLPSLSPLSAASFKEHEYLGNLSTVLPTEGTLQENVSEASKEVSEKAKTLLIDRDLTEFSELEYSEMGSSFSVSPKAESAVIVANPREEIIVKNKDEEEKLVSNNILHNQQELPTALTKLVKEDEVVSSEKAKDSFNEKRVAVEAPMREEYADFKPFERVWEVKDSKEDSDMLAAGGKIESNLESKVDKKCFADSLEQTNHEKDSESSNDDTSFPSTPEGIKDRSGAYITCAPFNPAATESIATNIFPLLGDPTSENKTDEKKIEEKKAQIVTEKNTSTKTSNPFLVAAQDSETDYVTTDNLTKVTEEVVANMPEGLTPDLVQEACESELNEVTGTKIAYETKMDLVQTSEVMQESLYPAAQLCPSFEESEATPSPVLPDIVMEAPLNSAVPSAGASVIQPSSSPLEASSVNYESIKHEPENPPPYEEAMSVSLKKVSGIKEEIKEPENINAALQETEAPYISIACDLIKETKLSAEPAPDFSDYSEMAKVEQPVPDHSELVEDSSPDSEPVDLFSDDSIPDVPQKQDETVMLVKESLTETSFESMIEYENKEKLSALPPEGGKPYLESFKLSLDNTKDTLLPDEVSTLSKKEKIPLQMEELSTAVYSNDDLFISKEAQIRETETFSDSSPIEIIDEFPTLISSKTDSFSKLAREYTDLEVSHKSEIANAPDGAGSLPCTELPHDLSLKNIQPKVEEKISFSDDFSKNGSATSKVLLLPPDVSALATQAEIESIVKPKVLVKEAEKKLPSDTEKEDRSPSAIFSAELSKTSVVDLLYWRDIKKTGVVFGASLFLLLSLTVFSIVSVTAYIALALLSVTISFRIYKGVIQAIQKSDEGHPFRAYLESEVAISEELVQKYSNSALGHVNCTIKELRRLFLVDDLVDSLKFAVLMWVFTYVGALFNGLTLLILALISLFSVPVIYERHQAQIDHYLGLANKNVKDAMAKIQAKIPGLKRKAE", "UniProt O00560": "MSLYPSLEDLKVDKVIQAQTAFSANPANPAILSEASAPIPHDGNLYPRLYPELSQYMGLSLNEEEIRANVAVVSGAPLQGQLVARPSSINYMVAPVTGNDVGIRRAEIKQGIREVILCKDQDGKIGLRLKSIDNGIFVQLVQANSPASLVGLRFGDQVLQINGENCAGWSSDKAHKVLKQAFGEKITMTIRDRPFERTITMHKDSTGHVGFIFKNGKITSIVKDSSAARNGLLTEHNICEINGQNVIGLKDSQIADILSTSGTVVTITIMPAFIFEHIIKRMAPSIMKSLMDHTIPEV", "UniProt P48443": "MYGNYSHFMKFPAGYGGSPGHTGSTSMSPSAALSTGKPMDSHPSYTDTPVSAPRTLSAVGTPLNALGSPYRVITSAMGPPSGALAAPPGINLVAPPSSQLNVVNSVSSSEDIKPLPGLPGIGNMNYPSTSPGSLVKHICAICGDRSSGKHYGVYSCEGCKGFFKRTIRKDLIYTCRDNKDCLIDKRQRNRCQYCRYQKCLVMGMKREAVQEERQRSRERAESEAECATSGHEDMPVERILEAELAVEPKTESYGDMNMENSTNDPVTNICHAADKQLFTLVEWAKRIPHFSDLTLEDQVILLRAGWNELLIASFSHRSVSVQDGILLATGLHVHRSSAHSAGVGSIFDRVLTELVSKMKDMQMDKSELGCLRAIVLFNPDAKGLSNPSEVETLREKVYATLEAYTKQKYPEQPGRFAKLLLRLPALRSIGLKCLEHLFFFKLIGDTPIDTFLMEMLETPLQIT", "UniProt Q99470": "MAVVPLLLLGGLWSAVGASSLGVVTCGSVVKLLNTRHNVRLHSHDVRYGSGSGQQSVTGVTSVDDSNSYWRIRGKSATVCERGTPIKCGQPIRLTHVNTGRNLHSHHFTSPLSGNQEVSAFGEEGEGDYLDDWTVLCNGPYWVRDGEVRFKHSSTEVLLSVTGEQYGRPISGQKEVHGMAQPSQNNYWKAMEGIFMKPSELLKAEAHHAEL", "UniProt Q9H4B6": "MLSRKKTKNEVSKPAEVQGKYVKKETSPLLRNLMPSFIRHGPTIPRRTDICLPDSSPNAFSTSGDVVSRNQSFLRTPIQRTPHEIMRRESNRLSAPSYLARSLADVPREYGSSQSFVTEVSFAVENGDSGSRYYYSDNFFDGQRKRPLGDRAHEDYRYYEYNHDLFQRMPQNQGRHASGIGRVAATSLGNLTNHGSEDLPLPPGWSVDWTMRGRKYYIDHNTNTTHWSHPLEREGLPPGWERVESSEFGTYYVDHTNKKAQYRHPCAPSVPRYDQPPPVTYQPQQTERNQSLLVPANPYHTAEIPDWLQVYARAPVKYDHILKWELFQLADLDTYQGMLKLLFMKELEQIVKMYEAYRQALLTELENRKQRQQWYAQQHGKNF"}, "source": "the supplement of paper PMC10849652", "note": "This is one part of the list."}
{"compound": "CC1=C2C(=CC=C1)N=C(N(C2=O)C3=CC=CC=C3C)CN4C=NC5=C(N=CN=C54)N", "test": "log2 fold change, soluble protein after heating vs DMSO (PISA); higher = thermal stabilisation; K562 cells, 10 uM, 30 min; active = over 0.2 and 3.5 SD of the protein, either way, in both replicates (recomputed)", "how_it_was_run": "(§1)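 For each measurement, 10 μM compound was applied for 30 min to K562 cells at 2×10^6 cells/mL. Aliquots were heated for 3 min across 48°C-58°C, pooled, and extracted in PBS with 0.5% NP-40 at 4°C; the supernatant after 21,000xg for 90 min was soluble protein. This was quantified by TMTpro 16plex LC-MS/MS with channel sums equalised, and thermal stability was reported relative to control samples from duplicates, on a log2 fold-change scale.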"}
{"target": "SDCCAG8 (UniProt Q86SQ7)", "log2 fold change": "inactive: -0.043"}
{"target": "SAP130 isoform 3 (UniProt Q9H0E3)", "log2 fold change": "inactive: -0.067"}
{"target": "RWDD2B (UniProt P57060)", "log2 fold change": "inactive: 0.165"}
{"target": "SEC14L1 isoform 2 (UniProt Q92503)", "log2 fold change": "inactive: -0.538"}
{"target": "RRP9 (UniProt O43818)", "log2 fold change": "inactive: 0.02"}
{"target": "RRP1 (UniProt P56182)", "log2 fold change": "inactive: 0.107"}
{"target": "RUBCN (UniProt Q92622)", "log2 fold change": "inactive: 0.106"}
{"target": "SAP30 (UniProt O75446)", "log2 fold change": "inactive: -0.002"}
{"target": "RUNX1 isoform 8 (UniProt Q01196)", "log2 fold change": "inactive: 0.025"}
{"target": "SDHB, A0A087WXX8", "log2 fold change": "inactive: 0.133"}
{"target": "SDHB, A0A087WWT1", "log2 fold change": "inactive: -0.02"}
{"target": "SCGB2A2 (UniProt Q13296)", "log2 fold change": "inactive: -0.247"}
{"target": "SBDS (UniProt Q9Y3A5)", "log2 fold change": "inactive: 0.113"}
{"target": "SCAI isoform 2 (UniProt Q8N9R8)", "log2 fold change": "inactive: -0.03"}
{"target": "RUFY3 isoform 3 (UniProt Q7L099)", "log2 fold change": "inactive: 0.061"}
{"target": "RSL24D1 (UniProt Q9UHA3)", "log2 fold change": "inactive: -0.317"}
{"target": "RTL10 (UniProt Q7L3V2)", "log2 fold change": "inactive: -0.061"}
{"target": "RTL8C (UniProt A6ZKI3)", "log2 fold change": "inactive: 0.111"}
{"target": "S100A14 (UniProt Q9HCY8)", "log2 fold change": "inactive: -0.148"}
{"target": "RRP1B (UniProt Q14684)", "log2 fold change": "inactive: -0.138"}
{"target": "S100A16 (UniProt Q96FQ6)", "log2 fold change": "inactive: -0.242"}
{"target": "SCAMP3 isoform 2 (UniProt O14828)", "log2 fold change": "inactive: 0.323"}
{"target": "SEC24C (UniProt P53992)", "log2 fold change": "inactive: 0.108"}
{"target": "SDC3 (UniProt O75056)", "log2 fold change": "inactive: 0.071"}
{"target": "SAE1 (UniProt M0R286)", "log2 fold change": "inactive: 0.396"}
{"target": "RTN4 isoform 5 (UniProt Q9NQC3)", "log2 fold change": "inactive: 0.021"}
{"compound": "Cc1sc2c(c1C)C(c1ccc(Cl)cc1)=N[C@@H](CC(=O)OC(C)(C)C)c1nnc(C)n1-2", "test": "log2 fold change, soluble protein after heating vs DMSO (PISA); higher = thermal stabilisation; K562 cells, 10 uM, 30 min; active = over 0.2 and 3.5 SD of the protein, either way, in both replicates (recomputed)", "how_it_was_run": "as §1"}
{"target": "SDCCAG8 (UniProt Q86SQ7)", "log2 fold change": "inactive: 0.064"}
{"target": "S100A6 (UniProt P06703)", "log2 fold change": "inactive: -0.181"}
{"target": "SEC14L1 isoform 2 (UniProt Q92503)", "log2 fold change": "inactive: -0.076"}
{"target": "RRP9 (UniProt O43818)", "log2 fold change": "inactive: 0.015"}
{"target": "SDCBP isoform 2 (UniProt O00560)", "log2 fold change": "inactive: 0.169"}
{"target": "SAMD4A (UniProt Q9UPU9)", "log2 fold change": "inactive: 0.313"}
{"target": "SCGB2A2 (UniProt Q13296)", "log2 fold change": "inactive: -0.336"}
{"target": "SBDS (UniProt Q9Y3A5)", "log2 fold change": "inactive: -0.025"}
{"target": "RXRG (UniProt P48443)", "log2 fold change": "inactive: -0.278"}
{"target": "RUFY3 isoform 3 (UniProt Q7L099)", "log2 fold change": "inactive: 0.016"}
{"target": "RSL24D1 (UniProt Q9UHA3)", "log2 fold change": "inactive: 0.152"}
{"target": "RTL10 (UniProt Q7L3V2)", "log2 fold change": "inactive: -0.069"}
{"target": "S100A10 (UniProt P60903)", "log2 fold change": "inactive: -0.127"}
{"target": "SDHAF4 (UniProt Q5VUM1)", "log2 fold change": "inactive: -0.025"}
{"target": "S100A14 (UniProt Q9HCY8)", "log2 fold change": "inactive: -0.405"}
{"target": "SCRIB isoform 3 (UniProt Q14160)", "log2 fold change": "inactive: -0.033"}
{"target": "SDF2 (UniProt Q99470)", "log2 fold change": "inactive: -0.577"}
{"target": "RRP1B (UniProt Q14684)", "log2 fold change": "inactive: 0.075"}
{"target": "S100A16 (UniProt Q96FQ6)", "log2 fold change": "inactive: -0.084"}
{"target": "SEC24C (UniProt P53992)", "log2 fold change": "inactive: -0.005"}
{"target": "SEC22A (UniProt Q96IW7)", "log2 fold change": "inactive: -0.011"}
{"target": "SCNM1 (UniProt Q9BWG6)", "log2 fold change": "inactive: 0.071"}
{"target": "SDC3 (UniProt O75056)", "log2 fold change": "inactive: -0.044"}
{"target": "SAMD4B (UniProt Q5PRF9)", "log2 fold change": "inactive: 0.039"}
{"target": "RTN4 isoform 5 (UniProt Q9NQC3)", "log2 fold change": "inactive: -0.049"}
{"target": "SAV1 (UniProt Q9H4B6)", "log2 fold change": "inactive: 0.018"}
